Data reported in the supplement of paper PMC8728848.
This is one part of the list.

Key:
Assay in all cases: glycan array binding signal (z-score within array); higher = stronger binding
Details in all cases: glycan notation: IUPAC condensed, linker removed
[1] = test system: Neu5Ac(a2-3)[Neu5Ac(a2-6)]GalNAc
In short: (§1)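 The binding signal is a Z-score computed within each array and averaged over linkers. Arrays of the same protein sequence at different concentrations or buffers were also averaged together. Data originate from 3228 arrays in the Consortium for Functional Glycomics database, kept only where the protein sequence was available.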

[2] = test system: Neu5Ac(a2-6)Gal(b1-3)GlcNAc(b1-3)[Gal(b1-4)GlcNAc(b1-6)]Gal(b1-4)Glc
In short: as §1

[3] = test system: Neu5Ac(a2-6)Gal(b1-4)GlcNAc(b1-2)Man(a1-3)Man(b1-4)GlcNAc(b1-4)GlcNAc
In short: as §1

[4] = test system: Neu5Ac(a2-6)Gal(b1-4)GlcNAc(b1-2)Man(a1-3)[Gal(b1-4)GlcNAc(b1-2)Man(a1-6)]Man(b1-4)GlcNAc(b1-4)GlcNAc
In short: as §1

[5] = test system: Neu5Ac(a2-6)Gal(b1-4)GlcNAc(b1-2)Man(a1-3)[GlcNAc(b1-2)Man(a1-6)]Man(b1-4)GlcNAc(b1-4)GlcNAc
In short: as §1

[6] = test system: Neu5Ac(a2-6)Gal(b1-4)GlcNAc(b1-2)Man(a1-3)[GlcNAc(b1-2)Man(b1-4)GlcNAc(b1-2)Man(a1-6)]Man(b1-4)GlcNAc(b1-4)GlcNAc
In short: as §1

[7] = test system: Neu5Ac(a2-6)Gal(b1-4)GlcNAc(b1-2)Man(a1-3)[Man(a1-6)]Man(b1-4)GlcNAc(b1-4)GlcNAc
In short: as §1

[8] = test system: Neu5Ac(a2-6)Gal(b1-4)GlcNAc(b1-2)Man(a1-3)[Neu5Ac(a2-6)Gal(b1-4)GlcNAc(b1-2)Man(a1-6)]Man(b1-4)GlcNAc(b1-4)GlcNAc
In short: as §1

[9] = test system: Neu5Ac(a2-6)Gal(b1-4)GlcNAc(b1-2)Man(a1-3)[Neu5Ac(a2-6)Gal(b1-4)GlcNAc(b1-2)Man(a1-6)]Man(b1-4)GlcNAc(b1-4)[Fuc(a1-6)]GlcNAc
In short: as §1

[10] = test system: Neu5Ac(a2-6)Gal(b1-4)GlcNAc(b1-2)Man(a1-6)Man(b1-4)GlcNAc(b1-4)GlcNAc
In short: as §1

[11] = test system: Neu5Ac(a2-6)Gal(b1-4)GlcNAc(b1-2)Man(a1-6)[Gal(b1-4)GlcNAc(b1-2)Man(a1-3)]Man(b1-4)GlcNAc(b1-4)GlcNAc
In short: as §1

[12] = test system: Neu5Ac(a2-6)Gal(b1-4)GlcNAc(b1-2)Man(a1-6)[GlcNAc(b1-2)Man(a1-3)]Man(b1-4)GlcNAc(b1-4)GlcNAc
In short: as §1

[13] = test system: Neu5Ac(a2-6)Gal(b1-4)GlcNAc(b1-2)Man(a1-6)[Man(a1-3)]Man(b1-4)GlcNAc(b1-4)GlcNAc
In short: as §1

[14] = test system: Neu5Ac(a2-6)Gal(b1-4)GlcNAc(b1-3)Gal(b1-3)GlcNAc
In short: as §1

[15] = test system: Neu5Ac(a2-6)Gal(b1-4)GlcNAc(b1-3)Gal(b1-4)GlcNAc(b1-3)Gal(b1-4)GlcNAc
In short: as §1

[16] = test system: Neu5Ac(a2-6)Gal(b1-4)GlcNAc(b1-3)Gal(b1-4)GlcNAc
In short: as §1

[17] = test system: Neu5Ac(a2-6)Gal(b1-4)GlcNAc(b1-3)Gal(b1-4)[Fuc(a1-3)]GlcNAc(b1-3)Gal(b1-4)[Fuc(a1-3)]GlcNAc
In short: as §1

[18] = test system: Neu5Ac(a2-6)Gal(b1-4)GlcNAc(b1-3)GalNAc
In short: as §1

[19] = test system: Neu5Ac(a2-6)Gal(b1-4)GlcNAc(b1-3)[Neu5Ac(a2-6)Gal(b1-4)GlcNAc(b1-6)]GalNAc
In short: as §1

[20] = test system: Neu5Ac(a2-6)Gal(b1-4)GlcNAc(b1-6)GalNAc
In short: as §1

[21] = test system: Neu5Ac(a2-6)Gal(b1-4)GlcNAc(b1-6)[Gal(b1-3)GlcNAc(b1-3)]Gal(b1-4)Glc
In short: as §1

[22] = test system: Neu5Ac(a2-6)Gal(b1-4)GlcNAc6S
In short: as §1

[23] = test system: Neu5Ac(a2-6)Gal(b1-4)GlcNAc
In short: as §1

Neu5Ac(a2-6)Gal(b1-4)Glc = test system: Neu5Ac(a2-6)Gal(b1-4)Glc
In short: as §1

[24] = test system: Neu5Ac(a2-6)GalNAc(b1-4)GlcNAc6S
In short: as §1

[25] = test system: Neu5Ac(a2-6)GalNAc(b1-4)GlcNAc
In short: as §1

Q: Wza (Escherichia coli), P0A930 was tested. Which “glycan array binding signal (z-score)” value [1] did it give?
A: Its value is -0.63.

Q: What about the “glycan array binding signal (z-score)” value [2] of the same substance?
A: Its value is 0.652.

Q: And the “glycan array binding signal (z-score)” value [3]?
A: The value was -0.725.

Q: And the “glycan array binding signal (z-score)” value [4]?
A: Its value is -0.614.

Q: And the “glycan array binding signal (z-score)” value [5]?
A: Its value is -0.492.

Q: And the “glycan array binding signal (z-score)” value [6]?
A: Its value is 0.014.

Q: And the “glycan array binding signal (z-score)” value [7]?
A: The value was 0.426.

Q: What about the “glycan array binding signal (z-score)” value [8] of the same substance?
A: Its value is -0.073.

Q: And the “glycan array binding signal (z-score)” value [9]?
A: The value was -0.578.

Q: What about the “glycan array binding signal (z-score)” value [10] of the same substance?
A: The value was -0.625.

Q: What about the “glycan array binding signal (z-score)” value [11] of the same substance?
A: Its value is -0.739.

Q: What about the “glycan array binding signal (z-score)” value [12] of the same substance?
A: The value was -1.02.

Q: What about the “glycan array binding signal (z-score)” value [13] of the same substance?
A: The value was 0.321.

Q: And the “glycan array binding signal (z-score)” value [14]?
A: The value was -0.325.

Q: And the “glycan array binding signal (z-score)” value [15]?
A: Its value is 0.651.

Q: What about the “glycan array binding signal (z-score)” value [16] of the same substance?
A: The value was -0.426.

Q: What about the “glycan array binding signal (z-score)” value [17] of the same substance?
A: Its value is -1.03.

Q: And the “glycan array binding signal (z-score)” value [18]?
A: The value was 0.761.

Q: And the “glycan array binding signal (z-score)” value [19]?
A: The value was -0.876.

Q: What about the “glycan array binding signal (z-score)” value [20] of the same substance?
A: The value was -0.468.

Q: What about the “glycan array binding signal (z-score)” value [21] of the same substance?
A: Its value is 0.411.

Q: And the “glycan array binding signal (z-score)” value [22]?
A: The value was 0.193.

Q: What about the “glycan array binding signal (z-score)” value [23] of the same substance?
A: The value was -0.515.

Q: And the “glycan array binding signal (z-score)” value (Neu5Ac(a2-6)Gal(b1-4)Glc)?
A: The value was -0.149.

Q: What about the “glycan array binding signal (z-score)” value [24] of the same substance?
A: Its value is -0.508.

Q: And the “glycan array binding signal (z-score)” value [25]?
A: Its value is -2.41.
